# Values quoted from earlier work, collected in US20210212960A1, “IDENTIFICATION OF SEIZURE SUSCEPTIBILITY REGION IN WOLF-HIRSCHHORN SYNDROME AND TREATMENT THEREOF” (Lineagen, Inc., priority 2016, published 2021).
# For at least one compound, name, drawing or mass did not settle the structure.
# Test system: seizures of this subtype of CDG
# Conditions: subtype of CDG caused by genes functioning like PIGG; cited from earlier work
compound,measurement,value
CCCC(=O)O [butyrate],efficacy in treating seizures,efficacious
